The first data set has as its system HLA molecules of primary tumor and normal tissue samples. Nature of the data set: Identification and quantitation of tumor associated peptides presented on the cell surface (HLA immunoprecipitation, label-free LC-MS). Also noted: species or system human. Conditions: HLA-B*44 positive normal (N=124) vs tumor samples (N=159), FIGS. 1A-1M.
Take “VEEEISRHY (listed as Homo sapiens) [SEQ ID NO: 283]”: the “over-presentation of peptide in cancer tissues (median MS signal intensities, detection frequency)” value is “over-presentation”.

The same data set, now with this note: cancer entities on which the peptide was found presented (HLA immunoprecipitation, LC-MS); abbreviations in table footnotes.
Turning to “394 (SEILRVTLY; listed as Homo sapiens) [compound 394]”, the “Peptide Presentation on cancer entities” value was “AML, CRC, HCC, NSCLCadeno, NSCLCsquam, OC, PACA”. On to “323 (SETAVVNVTY; listed as Homo sapiens) [compound 323]”, for which the “Peptide Presentation on cancer entities” value is listed as “GBC, NSCLCadeno”. Consider “282 (KEFGIGDLVW; listed as Homo sapiens) [compound 282]”, for which the “Peptide Presentation on cancer entities” value is “AML, HNSCC, OSCAR”. Regarding “15 (MEAELVRRI; listed as Homo sapiens) [compound 15]”, the “Peptide Presentation on cancer entities” value is “MEL”. On to “320 (AENPLNIFY; listed as Homo sapiens) [compound 320]”, for which the “Peptide Presentation on cancer entities” value is reported as “CCC, GBM, NHL, NSCLCsquam”. With “372 (EEYKFPSLF; listed as Homo sapiens) [compound 372]”, the “Peptide Presentation on cancer entities” value is recorded as “BRCA, CLL, CRC, OC”. The same measure, in the same setting: for “341 (HELESENKKW; listed as Homo sapiens) [compound 341]” the value was “AML, NHL, NSCLCsquam, OSCAR”.

In the case of “37 (IEQGRVVLW; listed as Homo sapiens) [compound 37]”, the “Peptide Presentation on cancer entities” value was “GBC, NHL”.

As for “358 (TEFHGGLHY; listed as Homo sapiens) [compound 358]”, the “Peptide Presentation on cancer entities” value is listed as “BRCA, CRC, GC, HCC, HNSCC”. As for “198 (REEEANVVL; listed as Homo sapiens) [compound 198]”, the “Peptide Presentation on cancer entities” value is “CCC, HCC, NSCLCsquam, UBC”. On the same count and under the same terms, for “43 (SEKIVYVY; listed as Homo sapiens) [compound 43]” the value was “HCC”; for “448 (ALSPVPSHW; listed as Homo sapiens) [compound 448]”, “CLL, NHL”. As to “270 (VLRPPGSSW; listed as Homo sapiens) [compound 270]”, the “Peptide Presentation on cancer entities” value is “UBC”. The same measure, in the same setting: for “409 (QEAKPRATW; listed as Homo sapiens) [compound 409]” the value was “BRCA, CCC, CLL, CRC, GBC, GC, HCC, NHL, NSCLCadeno, NSCLCsquam, PRCA, UBC”. Regarding “452 (NEVDGEYRY; listed as Homo sapiens) [compound 452]”, the “Peptide Presentation on cancer entities” value was “BRCA, CCC, CRC, GBC, GC, HCC, HNSCC, MEL, NHL, NSCLCadeno, NSCLCsquam, OC, OSCAR, PACA, PRCA, RCC, UBC, UEC”. “60 (EEAVRSVAF; listed as Homo sapiens) [compound 60]”: the “Peptide Presentation on cancer entities” value is reported as “CLL, NHL”. Still for that read-out and setting: for “265 (EDNLIHKF; listed as Homo sapiens) [compound 265]” the value was “GBC, HNSCC, OC, PACA”; for “280 (AAEPLVGQRW; listed as Homo sapiens) [compound 280]”, “RCC”; for “29 (TENPKKFKI; listed as Homo sapiens) [compound 29]”, “MEL”. Take “63 (YEQVLFGF; listed as Homo sapiens) [compound 63]”: the “Peptide Presentation on cancer entities” value is given as “CLL”. As for “62 (AEYSVHKITSTF; listed as Homo sapiens) [compound 62]”, the “Peptide Presentation on cancer entities” value is on record as “HNSCC”.

Turning to “95 (AAFEDAQGHIW; listed as Homo sapiens) [compound 95]”, the “Peptide Presentation on cancer entities” value was “PACA”.

With “145 (EELRMLSF; listed as Homo sapiens) [compound 145]”, the “Peptide Presentation on cancer entities” value is given as “CLL”. The same measure, in the same setting: for “158 (VEEERYTGQW; listed as Homo sapiens) [compound 158]” the value was “UBC”; for “387 (GEVQENYKL; listed as Homo sapiens) [compound 387]”, “NSCLCsquam”. Same read-out and setting: in the case of “410 (RELEEEFYSL; listed as Homo sapiens) [compound 410]” it was “CLL”.

On to “17 (SEIYQPRGF; listed as Homo sapiens) [compound 17]”, for which the “Peptide Presentation on cancer entities” value is listed as “NHL”. As for “299 (AEVQIARKL; listed as Homo sapiens) [compound 299]”, the “Peptide Presentation on cancer entities” value is “CLL, CRC, GBC, HCC, MEL, NHL, NSCLCadeno, OC, OSCAR, RCC, UEC”. On the same count and under the same terms, in the case of “187 (TEQALRLSV; listed as Homo sapiens) [compound 187]” it was “PACA”. On the same count and under the same terms, in the case of “204 (YERPTLVEL; listed as Homo sapiens) [compound 204]” it was “AML, CLL”; in that of “219 (WEVEVGDRTDW; listed as Homo sapiens) [compound 219]”, “CLL, MEL, NHL, NSCLCadeno, RCC”.

Regarding “167 (AETENRYCV; listed as Homo sapiens) [compound 167]”, the “Peptide Presentation on cancer entities” value is recorded as “PACA”. Regarding “309 (SDDLRNVTW; listed as Homo sapiens) [compound 309]”, the “Peptide Presentation on cancer entities” value was “BRCA, NSCLCadeno”. On to “344 (DEIRVFGY; listed as Homo sapiens) [compound 344]”, for which the “Peptide Presentation on cancer entities” value is given as “HCC”.

With “172 (RENPGMFSW; listed as Homo sapiens) [compound 172]”, the “Peptide Presentation on cancer entities” value was “MEL”.

“246 (HEHGLFNLY; listed as Homo sapiens) [compound 246]”: the “Peptide Presentation on cancer entities” value was “MEL”. In the case of “425 (KEVDPASNTY; listed as Homo sapiens) [compound 425]”, the “Peptide Presentation on cancer entities” value is “OSCAR”. As for “133 (IEAPKLMVV; listed as Homo sapiens) [compound 133]”, the “Peptide Presentation on cancer entities” value is on record as “HNSCC, MEL, NSCLCadeno”. Still for that read-out and setting: for “453 (SESKVFQLL; listed as Homo sapiens) [compound 453]” the value was “BRCA, CCC, CRC, HCC, HNSCC, NHL, NSCLCadeno, NSCLCsquam, OSCAR, PACA”. On to “260 (VELMFPLLL; listed as Homo sapiens) [compound 260]”, for which the “Peptide Presentation on cancer entities” value is “BRCA”. “308 (EEPKIDFRVY; listed as Homo sapiens) [compound 308]”: the “Peptide Presentation on cancer entities” value is listed as “BRCA, CCC, CRC, HNSCC, MEL, NSCLCadeno, NSCLCsquam, OC, OSCAR, PACA, PRCA, RCC”. Consider “275 (GEQPPEGQW; listed as Homo sapiens) [compound 275]”, for which the “Peptide Presentation on cancer entities” value is on record as “CLL”. “401 (VENIFHNF; listed as Homo sapiens) [compound 401]”: the “Peptide Presentation on cancer entities” value was “BRCA, GC, HCC, MEL, NSCLCadeno, NSCLCsquam, OSCAR”. On to “329 (SEPQITVNF; listed as Homo sapiens) [compound 329]”, for which the “Peptide Presentation on cancer entities” value was “BRCA, GBC”. Turning to “333 (SEGTLPYSY; listed as Homo sapiens) [compound 333]”, the “Peptide Presentation on cancer entities” value is listed as “GC, NSCLCsquam, OSCAR”. The same measure, in the same setting: for “345 (AEYQAAILHL; listed as Homo sapiens) [compound 345]” the value was “MEL”; for “135 (QEIDRGQYI; listed as Homo sapiens) [compound 135]”, “MEL”; for “229 (AEDLEKKYA; listed as Homo sapiens) [compound 229]”, “CCC, CLL, MEL, PACA, UEC”. “53 (KEDNPSGHTY; listed as Homo sapiens) [compound 53]”: the “Peptide Presentation on cancer entities” value is “NHL”. For “123 (DEINHQSL; listed as Homo sapiens) [compound 123]”, the “Peptide Presentation on cancer entities” value is “NHL”.

As for “234 (TEEPQRLFY; listed as Homo sapiens) [compound 234]”, the “Peptide Presentation on cancer entities” value is given as “BRCA, HCC, MEL, NSCLCadeno, OC, OSCAR, RCC”.

As to “128 (TELTEARVQVW; listed as Homo sapiens) [compound 128]”, the “Peptide Presentation on cancer entities” value is given as “MEL”.

As for “121 (YENIPVDKV; listed as Homo sapiens) [compound 121]”, the “Peptide Presentation on cancer entities” value is reported as “MEL”.

As to “218 (REAEEKEAQL; listed as Homo sapiens) [compound 218]”, the “Peptide Presentation on cancer entities” value was “CLL”. As to “192 (LEIMTNLVTL; listed as Homo sapiens) [compound 192]”, the “Peptide Presentation on cancer entities” value is listed as “BRCA”.

On to “356 (TEAVLNRY; listed as Homo sapiens) [compound 356]”, for which the “Peptide Presentation on cancer entities” value was “GC, NSCLCsquam, OSCAR”. With “137 (EKGLISAF; listed as Homo sapiens) [compound 137]”, the “Peptide Presentation on cancer entities” value is recorded as “SCLC”. As to “200 (KELSVFKKF; listed as Homo sapiens) [compound 200]”, the “Peptide Presentation on cancer entities” value is recorded as “CLL, NHL”. Take “54 (QEISAHRTEF; listed as Homo sapiens) [compound 54]”: the “Peptide Presentation on cancer entities” value is listed as “CLL”. In the case of “242 (CDAQIQYSY; listed as Homo sapiens) [compound 242]”, the “Peptide Presentation on cancer entities” value is reported as “AML”. Consider “208 (SEFLLRIF; listed as Homo sapiens) [compound 208]”, for which the “Peptide Presentation on cancer entities” value was “BRCA”. On the same count and under the same terms, for “39 (AEAMGKFKQCF; listed as Homo sapiens) [compound 39]” the value was “UEC”. For the substance “24 (EELALRIGL; listed as Homo sapiens) [compound 24]”, the “Peptide Presentation on cancer entities” value was “CCC”.

As for “433 (AEEGPSVPKIY; listed as Homo sapiens) [compound 433]”, the “Peptide Presentation on cancer entities” value was “CLL, NHL”. In the case of “81 (GEKATMQNL; listed as Homo sapiens) [compound 81]”, the “Peptide Presentation on cancer entities” value is listed as “NSCLCsquam, UBC”.

Consider “381 (QELMAFSFAGL; listed as Homo sapiens) [compound 381]”, for which the “Peptide Presentation on cancer entities” value is “OSCAR”. The same measure, in the same setting: for “286 (DELSVGRY; listed as Homo sapiens) [compound 286]” the value was “CRC, OSCAR, PRCA”; for “236 (LEDQLKPMLEW; listed as Homo sapiens) [compound 236]”, “MEL”.

The values above are taken from patent US12065471B2, “B*44 restricted peptides for use in immunotherapy against cancers and related methods” (Immatics Biotechnologies GmbH, priority 2018, dated 2024).
